# In PMC8511950:
# Amino acid sequences for entries named in this document (tags omitted).
# UniProt P16370: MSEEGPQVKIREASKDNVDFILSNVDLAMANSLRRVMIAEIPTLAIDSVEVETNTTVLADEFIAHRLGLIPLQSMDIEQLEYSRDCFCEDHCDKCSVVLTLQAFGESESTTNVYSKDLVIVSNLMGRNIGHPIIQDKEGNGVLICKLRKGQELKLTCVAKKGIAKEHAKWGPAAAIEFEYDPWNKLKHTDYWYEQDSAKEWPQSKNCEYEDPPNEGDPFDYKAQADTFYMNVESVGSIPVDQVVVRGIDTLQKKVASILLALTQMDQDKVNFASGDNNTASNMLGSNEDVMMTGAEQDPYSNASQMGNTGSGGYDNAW
# Molecular target: Rpb3 with C-terminal BioTAP tag (S. cerevisiae) (UniProt P16370)
# Experiment: affinity purification with mass spectrometry; BioTAP-XL two-step purification of Rpb3-BioTAP (IgG beads, then streptavidin agarose) from 1% formaldehyde-cross-linked wildtype and spt6-1004 cells shifted to 37 °C for 80 min; on-bead trypsin digestion, TMT labelling, MS3 quantification; untagged wildtype and spt6-1004 cells as controls; FDR cutoff 0.05
row,binding,Binder
1,binds,"Cet1 (enzyme, UniProt O13297 1-549) MSYTDNPPQTKRALSLDDLVNHDENEKVKLQKLSEAANGSRPFAENLESDINQTETGQAAPIDNYKESTGHGSHSQKPKSRKSSNDDEETDTDDEMGASGEINFDSEMDFDYDKQHRNLLSNGSPPMNDGSDANAKLEKPSDDSIHQNSKSDEEQRIPKQGNEGNIASNYITQVPLQKQKQTEKKIAGNAVGSVVKKEEEANAAVDNIFEEKATLQSKKNNIKRDLEVLNEISASSKPSKYRNVPIWAQKWKPTIKALQSINVKDLKIDPSFLNIIPDDDLTKSVQDWVYATIYSIAPELRSFIELEMKFGVIIDAKGPDRVNPPVSSQCVFTELDAHLTPNIDASLFKELSKYIRGISEVTENTGKFSIIESQTRDSVYRVGLSTQRPRFLRMSTDIKTGRVGQFIEKRHVAQLLLYSPKDSYDVKISLNLELPVPDNDPPEKYKSQSPISERTKDRVSYIHNDSCTRIDITKVENHNQNSKSRQSETTHEVELEINTPALLNAFDNITNDSKEYASLIRTFLNNGTIIRRKLSSLSYEIFEGSKKVM"
2,binds,"Cdc73 (protein, UniProt Q06697 1-393) MANSLDRLREHLKNGDKLVLKNNEGQSTDDITKATMVETLSSDGSTQDSFPLNEETEIEIDGSLVQLRIIVHCWMNKDSSAADYLADCQNKQLTNVSFLQRTDLINWLSGNTESSQYLKAPGQKGETSDKVDIENKTLAGELSTVKSTTSASLENDSEVSDPVVVETMKHERILVDHNSALRGAKPINFGYLIKDAELKLVQSIKGSLRGSKLPPGHKGAHGRISKTNGSSGGPRKDPIILIPSAASSILTVANIKQFLLESKYVNPRNLPSVPNGLVNIEKNFERISRPIRFIIVDNTRMFTKPEYWDRVVAIFTTGHTWQFNNYQWNSPQELFQRCKGYYFHFAGDSVPQHVQQWNVEKVELDKNKRFKDVEVVRYFWHSLEKELISRGYR"
3,binds,"Trm2 (protein, UniProt P33753 1-639) MYEQFEFSFFFFENSDNKVKYKAHLISSIKRWSIITCMRCFWTVQKSIFKARFFACRNFVKKHNYKLISTMTGSTEMVPPTMKHTVDNKRLSSPLTDSGNRRTKKPKLRKYKAKKVETTSPMGVLEFEVNDLLKSQNLSREQVLNDVTSILNDKSSTDGPIVLQYHREVKNVKVLEITSNGNGLALIDNPVETEKKQVVIIPFGLPGDVVNIKVFKTHPYYVESDLLDVVEKSPMRRDDLIRDKYFGKSSGSQLEFLTYDDQLELKRKTIMNAYKFFAPRLVAEKLLPPFDTTVASPLQFGYRTKITPHFDMPKRKQKELSVRPPLGFGQKGRPQWRKDTLDIGGHGSILDIDECVLATEVLNKGLTNERRKFEQEFKNYKKGATILLRENTTILDPSKPTLEQLTEEASRDENGDISYVEVEDKKNNVRLAKTCVTNPRQIVTEYVDGYTFNFSAGEFFQNNNSILPIVTKYVRDNLQAPAKGDDNKTKFLVDAYCGSGLFSICSSKGVDKVIGVEISADSVSFAEKNAKANGVENCRFIVGKAEKLFESIDTPSENTSVILDPPRKGCDELFLKQLAAYNPAKIIYISCNVHSQARDVEYFLKETENGSAHQIESIRGFDFFPQTHHVESVCIMKRI"
4,binds,"Ctr9 (protein, UniProt P89105 1-1077) MTNAMKVEGYPSMEWPTSLDIPLKASEELVGIDLETDLPDDPTDLKTLLVEENSEKEHWLTIALAYCNHGKTNEGIKLIEMALDVFQNSERASLHTFLTWAHLNLAKGQSLSVETKEHELTQAELNLKDAIGFDPTWIGNMLATVELYYQRGHYDKALETSDLFVKSIHAEDHRSGRQSKPNCLFLLLRAKLLYQKKNYMASLKIFQELLVINPVLQPDPRIGIGLCFWQLKDSKMAIKSWQRALQLNPKNTSASILVLLGEFRESFTNSTNDKTFKEAFTKALSDLNNIFSENQHNPVLLTLLQTYYYFKGDYQTVLDIYHHRILKMSPMIAKIVLSESSFWCGRAHYALGDYRKSFIMFQESLKKNEDNLLAKLGLGQTQIKNNLLEESIITFENLYKTNESLQELNYILGMLYAGKAFDAKTAKNTSAKEQSNLNEKALKYLERYLKLTLATKNQLVISRAYLVISQLYELQNQYKTSLDYLSKALEEMEFIKKEIPLEVLNNLACYHFINGDFIKADDLFKQAKAKVSDKDESVNITLEYNIARTNEKNDCEKSESIYSQVTSLHPAYIAARIRNLYLKFAQSKIEDSDMSTEMNKLLDLNKSDLEIRSFYGWYLKNSKERKNNEKSTTHNKETLVKYNSHDAYALISLANLYVTIARDGKKSRNPKEQEKSKHSYLKAIQLYQKVLQVDPFNIFAAQGLAIIFAESKRLGPALEILRKVRDSLDNEDVQLNLAHCYLEMREYGKAIENYELVLKKFDNEKTRPHILNLLGRAWYARAIKERSVNFYQKALENAKTALDLFVKESSKSKFIHSVKFNIALLHFQIAETLRRSNPKFRTVQQIKDSLEGLKEGLELFRELNDLKEFNMIPKEELEQRIQLGETTMKSALERSLNEQEEFEKEQSAKIDEARKILEENELKEQGWMKQEEEARRLKLEKQAEEYRKLQDEAQKLIQEREAMAISEHNVKDDSDLSDKDNEYDEEKPRQKRKRSTKTKNSGESKRRKAAKKTLSDSDEDDDDVVKKPSHNKGKKSQLSNEFIEDSDEEEAQMSGSEQNKNDDNDENNDNDDNDGLF"

# These are yes or no findings as the source states them, for the method shown. In cells and extracts the contact can be indirect. A yes stands for co-enrichment or nearness to the bait. Other partners may have been found.
